Some of the results follow.
Assays:
Assay in all cases: log2 fold change, soluble protein after heating vs DMSO (PISA); higher = thermal stabilisation; K562 lysate, 10 uM; active = over 0.2 and 3.5 SD of the protein, either way, in both replicates (recomputed)
erlotinib = compound: C#Cc1cccc(Nc2ncnc3cc(OCCOC)c(OCCOC)cc23)c1 [erlotinib]
Outline: (§1)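 A 30 min treatment with 10 μM compound was applied to crude K562 extract at 1 mg/mL protein in PBS pH 7.4 with 1 mM MgCl2. Heating for 3 min spanned 48°C-58°C, after which aliquots were pooled, adjusted to 0.5% NP-40 at 4°C and spun at 21,000xg for 90 min. TMTpro 16plex LC-MS/MS of the supernatant, with channel sums equalised, gave values recorded as log-two fold change in thermal stability against solvent controls, from duplicates.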

Chains of the proteins cited; added tags and fusions are not shown. Lines headed by an entry give the natural chain unless they say otherwise; changes in a name come on top.
UniProt O94915: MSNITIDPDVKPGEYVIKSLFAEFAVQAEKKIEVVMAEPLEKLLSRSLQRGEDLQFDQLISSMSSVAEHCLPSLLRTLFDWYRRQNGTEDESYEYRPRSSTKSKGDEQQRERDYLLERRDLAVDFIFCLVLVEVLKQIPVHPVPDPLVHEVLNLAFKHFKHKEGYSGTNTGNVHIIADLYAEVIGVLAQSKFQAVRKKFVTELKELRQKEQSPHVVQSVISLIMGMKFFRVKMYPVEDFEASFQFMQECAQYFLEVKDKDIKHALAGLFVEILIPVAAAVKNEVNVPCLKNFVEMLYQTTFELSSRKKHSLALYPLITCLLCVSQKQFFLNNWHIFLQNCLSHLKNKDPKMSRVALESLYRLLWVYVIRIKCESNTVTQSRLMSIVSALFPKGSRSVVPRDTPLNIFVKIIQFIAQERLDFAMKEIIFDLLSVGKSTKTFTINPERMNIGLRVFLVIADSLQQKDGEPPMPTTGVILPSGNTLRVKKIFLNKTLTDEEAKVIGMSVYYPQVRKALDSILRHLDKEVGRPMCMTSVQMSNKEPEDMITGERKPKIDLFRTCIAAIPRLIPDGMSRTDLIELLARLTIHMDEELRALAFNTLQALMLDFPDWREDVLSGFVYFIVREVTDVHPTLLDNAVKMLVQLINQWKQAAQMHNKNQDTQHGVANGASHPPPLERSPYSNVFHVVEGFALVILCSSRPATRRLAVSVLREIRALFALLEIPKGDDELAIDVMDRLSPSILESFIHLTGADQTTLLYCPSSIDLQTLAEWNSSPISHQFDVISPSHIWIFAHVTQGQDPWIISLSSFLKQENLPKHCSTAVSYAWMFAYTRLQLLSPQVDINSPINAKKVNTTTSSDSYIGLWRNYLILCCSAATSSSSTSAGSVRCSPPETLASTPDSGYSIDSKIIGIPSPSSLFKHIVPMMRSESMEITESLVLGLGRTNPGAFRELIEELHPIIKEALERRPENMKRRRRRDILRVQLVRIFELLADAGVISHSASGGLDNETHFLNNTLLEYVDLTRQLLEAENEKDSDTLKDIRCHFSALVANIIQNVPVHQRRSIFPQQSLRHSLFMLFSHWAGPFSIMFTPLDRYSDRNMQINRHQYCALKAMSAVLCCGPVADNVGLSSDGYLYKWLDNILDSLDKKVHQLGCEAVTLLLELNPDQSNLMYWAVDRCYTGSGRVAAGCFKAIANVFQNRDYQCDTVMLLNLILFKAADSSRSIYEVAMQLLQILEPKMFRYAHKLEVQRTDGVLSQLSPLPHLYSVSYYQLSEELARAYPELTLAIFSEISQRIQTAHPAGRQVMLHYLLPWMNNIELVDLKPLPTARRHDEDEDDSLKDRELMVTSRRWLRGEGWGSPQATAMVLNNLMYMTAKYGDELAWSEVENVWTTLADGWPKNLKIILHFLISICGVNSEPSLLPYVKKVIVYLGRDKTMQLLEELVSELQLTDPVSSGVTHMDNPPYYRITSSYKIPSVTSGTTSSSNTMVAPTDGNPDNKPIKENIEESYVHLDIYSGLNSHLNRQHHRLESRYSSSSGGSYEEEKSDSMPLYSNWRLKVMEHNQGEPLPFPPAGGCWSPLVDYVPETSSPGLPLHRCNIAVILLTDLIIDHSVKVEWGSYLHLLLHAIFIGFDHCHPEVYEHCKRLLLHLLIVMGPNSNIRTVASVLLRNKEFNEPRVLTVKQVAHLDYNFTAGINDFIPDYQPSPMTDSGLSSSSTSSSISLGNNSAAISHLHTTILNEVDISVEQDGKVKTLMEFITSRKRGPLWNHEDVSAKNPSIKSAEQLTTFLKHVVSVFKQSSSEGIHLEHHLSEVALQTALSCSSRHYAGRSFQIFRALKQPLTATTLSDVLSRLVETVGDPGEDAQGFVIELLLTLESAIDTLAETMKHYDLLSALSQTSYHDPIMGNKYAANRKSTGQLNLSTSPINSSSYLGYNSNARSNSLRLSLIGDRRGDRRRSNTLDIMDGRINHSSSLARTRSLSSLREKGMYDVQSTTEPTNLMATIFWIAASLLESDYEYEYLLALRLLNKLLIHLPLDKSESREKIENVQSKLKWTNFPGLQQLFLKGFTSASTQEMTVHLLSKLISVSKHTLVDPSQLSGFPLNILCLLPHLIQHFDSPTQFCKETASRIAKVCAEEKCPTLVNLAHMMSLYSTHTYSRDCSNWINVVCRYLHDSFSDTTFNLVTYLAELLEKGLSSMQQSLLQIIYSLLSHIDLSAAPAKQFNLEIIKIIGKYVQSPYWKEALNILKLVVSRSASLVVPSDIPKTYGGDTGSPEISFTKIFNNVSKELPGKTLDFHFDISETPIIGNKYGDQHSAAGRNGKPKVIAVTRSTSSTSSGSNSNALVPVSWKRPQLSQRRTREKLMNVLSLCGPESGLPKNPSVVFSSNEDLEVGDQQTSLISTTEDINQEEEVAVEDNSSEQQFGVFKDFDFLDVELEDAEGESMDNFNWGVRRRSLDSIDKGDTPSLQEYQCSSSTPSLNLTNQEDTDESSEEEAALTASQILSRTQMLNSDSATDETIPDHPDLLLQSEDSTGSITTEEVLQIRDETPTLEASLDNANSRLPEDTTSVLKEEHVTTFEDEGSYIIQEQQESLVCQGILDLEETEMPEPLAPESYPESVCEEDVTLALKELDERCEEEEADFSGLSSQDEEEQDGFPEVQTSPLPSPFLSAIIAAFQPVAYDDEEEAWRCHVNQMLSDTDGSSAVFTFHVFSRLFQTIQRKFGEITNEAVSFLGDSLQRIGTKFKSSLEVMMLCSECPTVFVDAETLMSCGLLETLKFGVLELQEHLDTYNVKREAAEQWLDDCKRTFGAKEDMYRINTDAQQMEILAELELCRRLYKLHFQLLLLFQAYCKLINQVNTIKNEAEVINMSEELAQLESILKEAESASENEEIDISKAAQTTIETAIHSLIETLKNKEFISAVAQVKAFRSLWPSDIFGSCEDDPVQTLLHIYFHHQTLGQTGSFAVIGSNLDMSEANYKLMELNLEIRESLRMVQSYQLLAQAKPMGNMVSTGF
UniProt Q9H0R8, whole entry, looked up: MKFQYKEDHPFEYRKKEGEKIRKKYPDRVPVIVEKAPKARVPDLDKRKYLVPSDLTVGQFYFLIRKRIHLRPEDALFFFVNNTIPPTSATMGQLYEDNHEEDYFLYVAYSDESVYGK
UniProt Q8N9F7: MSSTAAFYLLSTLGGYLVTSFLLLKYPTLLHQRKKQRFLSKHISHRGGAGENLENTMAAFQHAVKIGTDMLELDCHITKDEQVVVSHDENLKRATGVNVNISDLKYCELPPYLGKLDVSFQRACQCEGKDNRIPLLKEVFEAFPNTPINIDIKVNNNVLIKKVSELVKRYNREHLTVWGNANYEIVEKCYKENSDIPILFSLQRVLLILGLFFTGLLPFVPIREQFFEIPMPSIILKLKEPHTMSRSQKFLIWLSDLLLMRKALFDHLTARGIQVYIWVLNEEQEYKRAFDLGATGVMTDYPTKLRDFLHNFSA
UniProt O75600: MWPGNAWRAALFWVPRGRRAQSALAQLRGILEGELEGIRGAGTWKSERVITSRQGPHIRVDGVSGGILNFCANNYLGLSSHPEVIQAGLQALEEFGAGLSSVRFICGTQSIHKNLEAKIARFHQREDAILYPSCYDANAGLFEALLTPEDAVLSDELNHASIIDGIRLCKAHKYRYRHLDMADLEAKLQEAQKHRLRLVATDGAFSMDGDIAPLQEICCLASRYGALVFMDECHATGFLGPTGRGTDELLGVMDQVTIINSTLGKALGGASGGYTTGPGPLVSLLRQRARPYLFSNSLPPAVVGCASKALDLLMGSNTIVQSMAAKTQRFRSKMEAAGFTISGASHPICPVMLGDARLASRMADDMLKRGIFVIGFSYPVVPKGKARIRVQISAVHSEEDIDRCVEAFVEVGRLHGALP
UniProt Q01167: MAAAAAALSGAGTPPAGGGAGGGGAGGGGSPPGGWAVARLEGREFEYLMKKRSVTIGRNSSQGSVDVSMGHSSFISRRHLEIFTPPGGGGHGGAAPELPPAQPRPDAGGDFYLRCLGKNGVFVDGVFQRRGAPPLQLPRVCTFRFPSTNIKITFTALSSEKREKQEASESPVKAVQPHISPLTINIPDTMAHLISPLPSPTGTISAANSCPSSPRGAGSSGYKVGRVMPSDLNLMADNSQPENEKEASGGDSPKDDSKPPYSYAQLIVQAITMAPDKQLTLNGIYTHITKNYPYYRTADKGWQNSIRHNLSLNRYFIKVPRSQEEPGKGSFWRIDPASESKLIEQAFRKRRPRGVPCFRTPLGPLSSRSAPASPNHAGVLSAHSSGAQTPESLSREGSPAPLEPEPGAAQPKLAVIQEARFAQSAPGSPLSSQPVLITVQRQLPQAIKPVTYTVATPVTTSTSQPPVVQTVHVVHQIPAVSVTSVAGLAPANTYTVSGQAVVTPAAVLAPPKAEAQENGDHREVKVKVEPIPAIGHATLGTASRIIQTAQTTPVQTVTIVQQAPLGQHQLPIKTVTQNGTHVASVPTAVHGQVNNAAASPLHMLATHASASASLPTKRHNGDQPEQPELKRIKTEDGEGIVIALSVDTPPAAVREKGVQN
UniProt Q7L5D6: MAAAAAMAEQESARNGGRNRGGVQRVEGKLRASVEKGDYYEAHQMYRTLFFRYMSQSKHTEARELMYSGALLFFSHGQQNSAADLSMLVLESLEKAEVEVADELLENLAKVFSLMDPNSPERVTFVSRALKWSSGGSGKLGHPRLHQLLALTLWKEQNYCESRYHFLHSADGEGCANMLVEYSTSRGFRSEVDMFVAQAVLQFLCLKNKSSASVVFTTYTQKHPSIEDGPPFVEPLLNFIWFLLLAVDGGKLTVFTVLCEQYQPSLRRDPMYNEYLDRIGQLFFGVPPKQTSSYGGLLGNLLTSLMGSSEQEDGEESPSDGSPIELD
UniProt P30047: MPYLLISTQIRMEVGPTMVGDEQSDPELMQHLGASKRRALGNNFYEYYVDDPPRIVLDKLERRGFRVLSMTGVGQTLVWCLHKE
UniProt Q8NB37: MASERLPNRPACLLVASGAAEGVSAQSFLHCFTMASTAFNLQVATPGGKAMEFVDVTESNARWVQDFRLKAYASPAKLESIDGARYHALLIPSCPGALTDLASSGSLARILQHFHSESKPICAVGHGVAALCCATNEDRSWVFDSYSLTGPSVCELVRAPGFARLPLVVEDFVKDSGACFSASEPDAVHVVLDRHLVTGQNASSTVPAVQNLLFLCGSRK
UniProt P85037: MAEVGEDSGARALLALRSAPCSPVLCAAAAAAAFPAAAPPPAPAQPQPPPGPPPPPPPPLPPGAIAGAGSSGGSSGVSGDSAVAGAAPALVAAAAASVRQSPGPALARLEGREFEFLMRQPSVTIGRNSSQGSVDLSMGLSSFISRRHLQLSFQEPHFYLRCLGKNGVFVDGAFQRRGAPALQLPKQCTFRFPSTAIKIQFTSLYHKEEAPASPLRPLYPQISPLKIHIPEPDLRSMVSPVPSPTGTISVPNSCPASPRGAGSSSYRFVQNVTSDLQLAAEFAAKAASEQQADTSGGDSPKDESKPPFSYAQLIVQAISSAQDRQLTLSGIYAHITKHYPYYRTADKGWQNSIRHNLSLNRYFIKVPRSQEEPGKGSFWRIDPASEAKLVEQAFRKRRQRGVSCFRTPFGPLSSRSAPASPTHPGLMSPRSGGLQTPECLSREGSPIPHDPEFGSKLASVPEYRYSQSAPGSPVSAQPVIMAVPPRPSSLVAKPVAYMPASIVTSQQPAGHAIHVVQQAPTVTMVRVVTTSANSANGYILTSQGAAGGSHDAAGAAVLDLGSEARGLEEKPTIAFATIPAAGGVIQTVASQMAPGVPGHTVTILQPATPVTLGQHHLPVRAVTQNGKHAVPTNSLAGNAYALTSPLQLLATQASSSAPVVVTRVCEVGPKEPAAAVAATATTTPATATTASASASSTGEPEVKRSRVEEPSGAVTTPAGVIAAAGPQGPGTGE
UniProt Q96AE4: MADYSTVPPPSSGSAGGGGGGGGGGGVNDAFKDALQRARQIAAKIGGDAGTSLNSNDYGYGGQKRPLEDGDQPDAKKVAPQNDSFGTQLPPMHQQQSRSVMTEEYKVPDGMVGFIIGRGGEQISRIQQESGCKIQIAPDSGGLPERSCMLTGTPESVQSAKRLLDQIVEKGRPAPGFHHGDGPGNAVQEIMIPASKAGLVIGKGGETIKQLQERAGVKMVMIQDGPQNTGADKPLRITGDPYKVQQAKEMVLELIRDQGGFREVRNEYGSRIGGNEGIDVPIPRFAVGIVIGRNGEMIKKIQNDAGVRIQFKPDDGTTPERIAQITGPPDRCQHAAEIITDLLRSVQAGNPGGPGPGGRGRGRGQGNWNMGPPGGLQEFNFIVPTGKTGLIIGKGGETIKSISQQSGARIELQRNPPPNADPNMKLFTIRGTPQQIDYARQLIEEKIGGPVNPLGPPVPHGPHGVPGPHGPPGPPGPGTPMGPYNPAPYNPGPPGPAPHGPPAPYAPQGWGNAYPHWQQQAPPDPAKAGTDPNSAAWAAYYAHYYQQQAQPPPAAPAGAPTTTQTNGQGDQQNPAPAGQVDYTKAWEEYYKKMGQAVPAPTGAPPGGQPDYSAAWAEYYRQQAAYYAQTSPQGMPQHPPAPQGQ

[1] = compound: C/C(=N\NC(=O)C1=CC(=CC=C1)S(=O)(=O)N2CCOCC2)/C3=C(C=CC(=C3)Cl)O
Outline: as §1

[2] = compound: C1=CC(=CC=C1C2=NC3=C(N2)C=C(C=C3)C(=O)N)OC4=CC=C(C=C4)Cl
Outline: as §1

[3] = compound: C1=CC2=C(C=CC(=C2)/C=C\3/C(=O)NC(=NCC4=CC=CS4)S3)N=C1
Outline: as §1

[4] = compound: C1=CC2=NC=CN=C2C=C1/C=C/3\C(=O)NC(=O)S3
Outline: as §1

[5] = compound: C1=CC=C(C=C1)C2=NC(=C(N2)C3=CC=NC=C3)C4=CC(=C(C=C4)Cl)O
Outline: as §1

[6] = compound: C1=CC=C2C(=C1)C3=NNC4=CC=CC(=C43)C2=O
Outline: as §1

[7] = compound: C1CCN(C1)C(=O)NC2=CC=CC(=C2)NC3=NC=C(C(=N3)NCCC4=CN=CN4)Br
Outline: as §1

[8] = compound: C1CN(CCC1(CC2=CC=C(C=C2)Cl)N)C3=NC=NC4=C3C=CN4
Outline: as §1

IRAK-1-4 Inhibitor I = compound: C1COCCN1CCN2C3=CC=CC=C3N=C2NC(=O)C4=CC(=CC=C4)[N+](=O)[O-] [IRAK-1-4 Inhibitor I]
Outline: as §1

ibrutinib = compound: C=CC(=O)N1CCC[C@@H](n2nc(-c3ccc(Oc4ccccc4)cc3)c3c(N)ncnc32)C1 [ibrutinib]
Outline: as §1

[9] = compound: CC(=O)c1cnc2ccc(-c3cc(Cl)c(O)c(Cl)c3)nc2c1N[C@H]1CC[C@H](CN(C)C)CC1
Outline: as §1

ralimetinib = compound: CC(C)(C)Cn1c(N)nc2ccc(-c3[nH]c(C(C)(C)C)nc3-c3ccc(F)cc3)nc21 [ralimetinib]
Outline: as §1

[10] = compound: CC(C)(O)CC(=O)NCCn1ccc2ncnc(Nc3ccc(Oc4cccc(C(F)(F)F)c4)c(Cl)c3)c21
Outline: as §1

[11] = compound: CC(C)C1=C2N=C(C=C(N2N=C1)NCC3=CC=CC=C3)NCCCCCCN
Outline: as §1

[12] = compound: CC1=C(C(CC(=O)N1)C2=CC=C(C=C2)C(F)(F)F)C(=O)NC3=C(C=C4C(=C3)C=NN4)F
Outline: as §1

[13] = compound: CC1=C(C2=C(C=C1)C(=O)C3=CC=CC=C3N2CCCN)C
Outline: as §1

[14] = compound: CC1=C(C=C(C=C1)NC(=O)C2=CC(=CC=C2)C(C)(C)C#N)NC3=CC4=C(C=C3)N=CN(C4=O)C
Outline: as §1

[15] = compound: CC1=C(C=C(C=C1)NC(=O)C2=CC(=CC=C2)N(C)C)NC(=O)C3=CC=C(C=C3)O
Outline: as §1

[16] = compound: CC1=CC=C(C=C1)SC2=C3C=C(SC3=CN=C2)C(=O)N
Outline: as §1

Measured: log2 fold change

FRYL (UniProt O94915)
inactive: erlotinib 0.008 | [1] 0.002 | [2] -0.03 | [3] 0.013 | [4] 0.01 | [5] -0.024 | [6] -0.001 | [7] -0.026 | [8] 0.022 | IRAK-1-4 Inhibitor I 0.008 | ibrutinib 0 | [9] 0 | ralimetinib 0.026 | [10] -0.051 | [11] -0.054 | [12] -0.01 | [13] -0.02 | [14] -0.007 | [15] 0.014 | [16] 0.027

GABARAPL1 isoform 2 (UniProt Q9H0R8)
inactive: erlotinib 0.002 | [1] -0.104 | [2] 0.009 | [3] -0.075 | [4] -0.032 | [5] 0.022 | [6] -0.058 | [7] 0.048 | [8] 0.037 | IRAK-1-4 Inhibitor I 0.053 | ibrutinib 0.281 | [9] 0.024 | ralimetinib -0.012 | [10] -0.009 | [11] -0.023 | [12] -0.026 | [13] -0.034 | [14] 0.059 | [15] -0.052 | [16] -0.005

FUNDC2 (UniProt Q9BWH2)
inactive: erlotinib -0.011 | [1] -0.014 | [2] -0.027 | [3] -0.033 | [4] -0.011 | [5] 0.022 | [6] 0.003 | [7] 0.003 | [8] -0.008 | IRAK-1-4 Inhibitor I 0.021 | ibrutinib 0.005 | [9] -0.015 | ralimetinib 0.013 | [10] 0.003 | [11] -0.015 | [12] -0.025 | [13] -0.007 | [14] 0.056 | [15] 0.005 | [16] -0.042

GDPD1 (UniProt Q8N9F7)
inactive: erlotinib -0.037 | [1] 0.248 | [2] -0.112 | [3] 0.001 | [4] -0.041 | [5] 0.011 | [6] -0.024 | [7] 0.032 | [8] 0.086 | IRAK-1-4 Inhibitor I 0.038 | ibrutinib 0.039 | [9] -0.058 | ralimetinib 0.06 | [10] -0.137 | [11] 0.047 | [12] -0.032 | [13] -0.001 | [14] 0.055 | [15] 0.024 | [16] -0.063

GCAT isoform 2 (UniProt O75600)
inactive: erlotinib -0.031 | [1] 0.042 | [2] -0.01 | [3] 0.03 | [4] -0.002 | [5] -0.002 | [6] 0.006 | [7] 0.005 | [8] 0.034 | IRAK-1-4 Inhibitor I 0.04 | ibrutinib 0.021 | [9] 0.019 | ralimetinib 0.003 | [10] -0.041 | [11] 0.026 | [12] 0.025 | [13] -0.042 | [14] -0.022 | [15] 0.044 | [16] -0.002

FOXK2 (UniProt Q01167)
inactive: erlotinib -0.03 | [1] -0.078 | [2] 0.018 | [3] 0.05 | [4] -0.046 | [5] 0.033 | [6] 0.013 | [7] -0.039 | [8] -0.014 | IRAK-1-4 Inhibitor I -0.006 | ibrutinib 0.054 | [9] -0.055 | ralimetinib -0.012 | [10] -0.109 | [11] 0.031 | [12] -0.037 | [13] 0.041 | [14] 0.01 | [15] -0.016 | [16] 0.018

G6PD isoform 2 (UniProt P11413)
inactive: erlotinib 0.034 | [1] 0.05 | [2] 0.024 | [3] 0.016 | [4] 0.018 | [5] -0.001 | [6] -0.002 | [7] 0.006 | [8] 0.011 | IRAK-1-4 Inhibitor I 0.001 | ibrutinib -0.006 | [9] 0.001 | ralimetinib 0.023 | [10] 0.012 | [11] 0.018 | [12] -0.02 | [13] 0.045 | [14] -0.002 | [15] 0.024 | [16] 0.003

GET4 (UniProt Q7L5D6)
inactive: erlotinib 0.019 | [1] -0.11 | [2] -0.011 | [3] -0.035 | [4] 0.011 | [5] 0.011 | [6] -0.007 | [7] -0.01 | [8] 0.008 | IRAK-1-4 Inhibitor I 0.03 | ibrutinib 0.007 | [9] 0.01 | ralimetinib 0.007 | [10] -0.022 | [11] 0.026 | [12] 0.03 | [13] -0.013 | [14] -0.011 | [15] -0.016 | [16] 0.027

GCHFR (UniProt P30047)
inactive: erlotinib 0.005 | [1] 0.112 | [2] -0.039 | [3] -0.159 | [4] -0.062 | [5] -0.001 | [6] -0.003 | [7] 0.062 | [8] 0.007 | IRAK-1-4 Inhibitor I 0.155 | ibrutinib 0.057 | [9] -0.053 | ralimetinib -0.031 | [10] -0.032 | [11] 0.016 | [12] 0.029 | [13] -0.07 | [14] 0.087 | [15] -0.04 | [16] -0.07

GATD1 (UniProt Q8NB37)
inactive: erlotinib 0.014 | [1] 0.054 | [2] -0.001 | [3] -0.011 | [4] 0.017 | [5] 0.024 | [6] 0.042 | [7] 0.038 | [8] 0 | IRAK-1-4 Inhibitor I 0.024 | ibrutinib 0.021 | [9] 0.022 | ralimetinib -0.018 | [10] -0.033 | [11] 0.069 | [12] 0.036 | [13] 0.008 | [14] -0.011 | [15] -0.067 | [16] -0.022

GAN (UniProt Q9H2C0)
inactive: erlotinib 0.045 | [1] -0.01 | [2] 0.075 | [3] 0.008 | [4] -0.022 | [5] -0.004 | [6] -0.028 | [7] -0.031 | [8] 0.015 | IRAK-1-4 Inhibitor I 0.053 | ibrutinib -0.033 | [9] -0.007 | ralimetinib 0.013 | [10] -0.069 | [11] 0.004 | [12] -0.047 | [13] -0.04 | [14] 0.017 | [15] 0.001 | [16] -0.034

FTL (UniProt P02792)
inactive: erlotinib -0.14 | [1] -0.599 | [2] -0.077 | [3] -0.027 | [4] -0.006 | [5] 0.11 | [6] 0.012 | [7] -0.063 | [8] -0.034 | IRAK-1-4 Inhibitor I 0.169 | ibrutinib -0.026 | [9] -0.025 | ralimetinib -0.146 | [10] -0.257 | [11] 0.023 | [12] 0.027 | [13] 0.041 | [14] 0.023 | [15] 0.033 | [16] 0.053

FOXK1 (UniProt P85037)
inactive: erlotinib 0.014 | [1] -0.029 | [2] 0.038 | [3] 0.013 | [4] -0.057 | [5] -0.011 | [6] 0.007 | [7] -0.036 | [8] 0.013 | IRAK-1-4 Inhibitor I -0.014 | ibrutinib 0.033 | [9] 0.005 | ralimetinib 0.082 | [10] 0.063 | [11] -0.011 | [12] 0.018 | [13] 0.007 | [14] -0.025 | [15] -0.001 | [16] 0.011

GAMT (UniProt Q14353)
inactive: erlotinib 0.018 | [1] -0.008 | [2] 0.033 | [3] -0.008 | [4] -0.01 | [5] -0.016 | [6] 0.036 | [7] 0.035 | [8] 0.066 | IRAK-1-4 Inhibitor I -0.001 | ibrutinib 0.029 | [9] -0.008 | ralimetinib 0.019 | [10] 0.013 | [11] -0.041 | [12] 0.071 | [13] -0.009 | [14] -0.003 | [15] -0.003 | [16] 0.005

FUBP1 (UniProt Q96AE4)
inactive: erlotinib -0.201 | [1] -0.021 | [2] -0.101 | [3] 0.116 | [4] -0.002 | [5] 0.008 | [6] 0.022 | [7] -0.044 | [8] 0.122 | IRAK-1-4 Inhibitor I 0.046 | ibrutinib 0.088 | [9] 0.04 | ralimetinib 0.067 | [10] -0.042 | [11] 0.046 | [12] 0.063 | [13] -0.052 | [14] -0.024 | [15] -0.105 | [16] -0.002

Reference: the supplement of paper PMC10849652
